The values below are quoted from earlier work in PMC8284440, “Toward New Transmission-Blocking Combination Therapies: Pharmacokinetics of 10-Amino-Artemisinins and 11-Aza-Artemisinin and Comparison with Dihydroartemisinin and Artemether” (Antimicrobial Agents and Chemotherapy, 2021).

For data set [1], the system named is P. falciparum K1. Also noted: method as in ref 4 (supplement; main text 62). The note with it: Table S2; ref 4 (supplement; main text 62); cited from earlier work.
Data set [2] has as its system P. falciparum W2. On the set-up: method as in ref 4 (supplement; main text 62). The note with it: Table S2; ref 4 (supplement; main text 62); cited from earlier work.
The subject of data set [3] is P. falciparum K1. On the set-up: method as in ref 1 and 2 (supplement; main text 47, 48). The conditions noted are these: Table S1 resistance index; ref 1 and 2 (supplement; main text 47, 48); cited from earlier work.
For data set [4], the system named is P. falciparum W2. Also noted: method as in ref 1 and 2 (supplement; main text 47, 48). The conditions noted are these: Table S1 resistance index beside W2; ref 1 and 2 (supplement; main text 47, 48); cited from earlier work.
Data set [5] concerns early stage (>90% stage I-III) P. falciparum NF54 gametocytes. The note with it: Table S3; ref 1 and 2 (supplement; main text 47, 48); cited from earlier work.
Data set [6] deals with late stage (>90% stage IV and V) P. falciparum NF54 gametocytes. The note with it: Table S3; ref 1 and 2 (supplement; main text 47, 48); cited from earlier work.
The subject of data set [7] is P. falciparum artemisinin-resistant clone ARC08-22 (4G), PfKI3 C580Y. The conditions noted are these: ref 2 (supplement; main text 48); cited from earlier work.
The test system of data set [8] is P. falciparum artemisinin-resistant clone PL08-009 (5C), PfKI3 C580Y. On the set-up: method as in ref 2 (supplement; main text 48). The conditions noted are these: ref 2 (supplement; main text 48); cited from earlier work.
In data set [9] the test system is Chinese hamster ovary (CHO) cells. The conditions noted are these: selectivity index; ref 1 and 2 (supplement; main text 47, 48); cited from earlier work.
The next data set deals with HepG2. The note with it: ref 2 (supplement; main text 48); cited from earlier work.

In the case of `C[C@@H]1CC[C@H]2[C@@H](C)C(=O)N[C@@H]3O[C@@]4(C)CC[C@@H]1[C@]32OO4` [11-Aza-artemisinin 11, 11-aza-artemisinin], the “Resistance Index RIa (IC50 K1/IC50 NF54)” value in the data set with P. falciparum K1 [1] is 0.90. The “Resistance Index RIb (IC50 W2/IC50 NF54)” value with P. falciparum W2 [2] is given as 0.57.
In the case of `CO[C@H]1O[C@@H]2O[C@@]3(C)CC[C@H]4[C@H](C)CC[C@@H]([C@H]1C)[C@@]24OO3` [Artemether 3, artemether], the “Resistance Index RIa (IC50 K1/IC50 NF54)” value with P. falciparum K1 [1] was 1.41. Besides, the “Resistance Index RIb (IC50 W2/IC50 NF54)” value in the data set on P. falciparum W2 [2] is reported as 3.60.
Regarding `C[C@H]1[C@H](N2CCSCC2)O[C@@H]2O[C@@]3(C)CC[C@H]4[C@H](C)CC[C@@H]1[C@@]24OO3` [Artemiside 5, artemiside], the “RI (IC50 K1/IC50 NF54)” value with P. falciparum K1 [3] is given as 1.47. The “RI (W2 column)” value with P. falciparum W2 [4] is on record as 1.58. Also, the “Fold change preference ratio: EG to LG” value in data set [5] was 0.09. Further, the “Fold change preference ratio: LG to EG” value in data set [6] is listed as 10.9. Besides, the “RI (IC50 ARC08-22(4G)/IC50 W2)” value in [7] was 1.1. Besides, the “RI (IC50 PL08-09 (5C)/IC50 W2)” value in data set [8] is 0.1. Moreover, the “SI (EC50 CHO/IC50 NF54)” value in [9] was over 45166. The “SI (EC50 HepG2/IC50 P. berghei sporozoites)” value with HepG2 is given as over 308.
In the case of `C[C@H]1[C@H](N2CCS(=O)(=O)CC2)O[C@@H]2O[C@@]3(C)CC[C@H]4[C@H](C)CC[C@@H]1[C@@]24OO3` [Artemisone 6, artemisone], the “RI (IC50 K1/IC50 NF54)” value in the data set on P. falciparum K1 [3] was 0.85. Also, the “RI (W2 column)” value in the data set on P. falciparum W2 [4] is reported as 1.36. The “Fold change preference ratio: EG to LG” value in [5] was 21.9. In addition, in data set [6], the “Fold change preference ratio: LG to EG” value is reported as 0.05. Also, the “RI (IC50 ARC08-22(4G)/IC50 W2)” value in data set [7] is reported as 1.0. Besides, the “RI (IC50 PL08-09 (5C)/IC50 W2)” value in data set [8] is listed as 0.2. In addition, in [9], the “SI (EC50 CHO/IC50 NF54)” value is reported as over 83000. In addition, in the data set on HepG2, the “SI (EC50 HepG2/IC50 P. berghei sporozoites)” value is reported as over 1767.
As to `C[C@H]1[C@H](Nc2ccc(F)cc2)O[C@@H]2O[C@@]3(C)CC[C@H]4[C@H](C)CC[C@@H]1[C@@]24OO3` [Arylamine 8], in the data set with P. falciparum K1 [3], the “RI (IC50 K1/IC50 NF54)” value was 0.48. Further, in the data set on P. falciparum W2 [4], the “RI (W2 column)” value was 2.55. For the same molecule, the “Fold change preference ratio: EG to LG” value in data set [5] is given as 0.4. In data set [6], the “Fold change preference ratio: LG to EG” value is on record as 2.3. Moreover, the “RI (IC50 ARC08-22(4G)/IC50 W2)” value in data set [7] is on record as 1.2. For the same molecule, the “RI (IC50 PL08-09 (5C)/IC50 W2)” value in data set [8] is on record as 3.3. Also, the “SI (EC50 CHO/IC50 NF54)” value in data set [9] was 371.
As to `C[C@H]1[C@H](N2CCN(C(=O)Nc3ccc(F)cc3)CC2)O[C@@H]2O[C@@]3(C)CC[C@H]4[C@H](C)CC[C@@H]1[C@@]24OO3` [Arylurea 10], in the data set on P. falciparum K1 [3], the “RI (IC50 K1/IC50 NF54)” value is recorded as 0.65. Further, in the data set with P. falciparum W2 [4], the “RI (W2 column)” value is reported as 0.9. For the same molecule, the “Fold change preference ratio: EG to LG” value in data set [5] is recorded as 0.47. In [6], the “Fold change preference ratio: LG to EG” value is 2.59.
In the case of `CCN(CC)CCCC(C)Nc1ccnc2cc(Cl)ccc12` (stereo not drawn) [Chloroquine], in the data set on P. falciparum K1 [3], the “RI (IC50 K1/IC50 NF54)” value is given as 15.4.
Turning to `C[C@H]1[C@@H](O)O[C@@H]2O[C@@]3(C)CC[C@H]4[C@H](C)CC[C@@H]1[C@@]24OO3` [DHA 2, dihydroartemisinin], the “RI (IC50 K1/IC50 NF54)” value with P. falciparum K1 [3] is reported as 0.6. In the data set with P. falciparum W2 [4], the “RI (W2 column)” value was 0.7. The “Resistance Index RIa (IC50 K1/IC50 NF54)” value in the data set on P. falciparum K1 [1] was 1.40. Further, the “Resistance Index RIb (IC50 W2/IC50 NF54)” value in the data set with P. falciparum W2 [2] is listed as 0.65. Moreover, the “Fold change preference ratio: EG to LG” value in [5] is 0.78. For the same molecule, in data set [6], the “Fold change preference ratio: LG to EG” value is 1.3. Also, in data set [7], the “RI (IC50 ARC08-22(4G)/IC50 W2)” value is recorded as 1.5. Besides, the “RI (IC50 PL08-09 (5C)/IC50 W2)” value in data set [8] was 1.4. Besides, the “SI (EC50 CHO/IC50 NF54)” value in data set [9] is listed as 10039.
Turning to `C[C@H]1[C@H](NS(N)(=O)=O)O[C@@H]2O[C@@]3(C)CC[C@H]4[C@H](C)CC[C@@H]1[C@@]24OO3` [Sulfamide 7], the “RI (IC50 K1/IC50 NF54)” value in the data set with P. falciparum K1 [3] is 0.56. Further, the “RI (W2 column)” value with P. falciparum W2 [4] is 0.64. For the same molecule, the “Fold change preference ratio: EG to LG” value in data set [5] is 28.0. Also, the “Fold change preference ratio: LG to EG” value in data set [6] is 0.04. For the same molecule, the “RI (IC50 ARC08-22(4G)/IC50 W2)” value in data set [7] is 1.0. In addition, the “RI (IC50 PL08-09 (5C)/IC50 W2)” value in data set [8] is 0.4. Also, the “SI (EC50 CHO/IC50 NF54)” value in [9] is 51376.
